PMC2494995, “The central proline rich region of POB1/REPS2 plays a regulatory role in epidermal growth factor receptor endocytosis by binding to 14-3-3 and SH3 domain-containing proteins” (BMC Biochemistry, 2008)

What was measured:
[1] = molecular target: T1, GST-SH3 of Amphiphysin II (UniProt O00499 520-593); experiment: pull-down; GST or GST fusion proteins (100 μg) adsorbed to glutathione-sepharose 4B beads, two hours at 4°C with 1 mg of HEK293 cellular extract in JS lysis buffer (50 mM Hepes, 150 mM NaCl, 1% Triton-X100); washed three times in ice-cold PBS; Western blot; only the target purified
T1 construct: Amphiphysin II, SH3 domain; cloned into the SalI and BglII sites of pYEX (modified pGEX-2TK); also called AmphIISH3; GST-Amphiphysin II SH3; source: expressed in bacteria; on glutathione-Sepharose 4B beads (pull-down) or purified (peptide arrays)
T1 sequence (looked up): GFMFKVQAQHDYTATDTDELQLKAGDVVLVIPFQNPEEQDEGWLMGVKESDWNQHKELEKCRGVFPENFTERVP

GST-14-3-3 η (human) = molecular target: T2, GST-14-3-3 η (human) (UniProt Q04917); experiment: as above
T2 sequence: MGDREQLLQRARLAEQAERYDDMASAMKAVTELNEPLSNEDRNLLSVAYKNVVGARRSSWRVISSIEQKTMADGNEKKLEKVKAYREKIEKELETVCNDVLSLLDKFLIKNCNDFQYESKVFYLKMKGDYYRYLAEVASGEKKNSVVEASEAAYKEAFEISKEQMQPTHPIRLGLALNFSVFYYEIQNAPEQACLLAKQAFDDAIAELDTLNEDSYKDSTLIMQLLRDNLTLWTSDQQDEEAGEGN

[2] = molecular target: T3, Amphiphysin II-FLAG (full length) (UniProt O00499); experiment: co-IP; transfected HEK293 cells lysed in JS buffer; anti-FLAG M2 affinity gel, anti-HA or anti-Myc antibody, 2 hours at 4°C; washed in NET buffer; Western blot
T3 sequence: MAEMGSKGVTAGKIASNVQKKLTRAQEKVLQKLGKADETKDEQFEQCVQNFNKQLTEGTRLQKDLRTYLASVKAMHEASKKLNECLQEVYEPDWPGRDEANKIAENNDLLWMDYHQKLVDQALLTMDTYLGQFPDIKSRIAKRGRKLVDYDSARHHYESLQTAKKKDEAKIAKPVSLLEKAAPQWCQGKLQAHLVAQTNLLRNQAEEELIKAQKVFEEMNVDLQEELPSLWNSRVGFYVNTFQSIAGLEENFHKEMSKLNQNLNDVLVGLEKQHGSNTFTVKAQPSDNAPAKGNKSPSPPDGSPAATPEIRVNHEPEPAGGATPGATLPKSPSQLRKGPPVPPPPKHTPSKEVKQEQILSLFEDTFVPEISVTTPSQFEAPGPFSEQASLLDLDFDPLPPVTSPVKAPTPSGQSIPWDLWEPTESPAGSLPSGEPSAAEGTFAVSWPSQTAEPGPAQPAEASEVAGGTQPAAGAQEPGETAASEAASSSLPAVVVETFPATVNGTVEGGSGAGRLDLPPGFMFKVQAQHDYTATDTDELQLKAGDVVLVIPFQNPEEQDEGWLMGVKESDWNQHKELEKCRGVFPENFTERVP

[3] = molecular target: T4, positive control phospho-peptide RRSRsFPVTF; experiment: peptide or protein array; SPOT peptides on a cellulose membrane; GST fusion proteins (10 micrograms/ml) in PBS/BSA 5%; anti-GST antibody, peroxidase labeled secondary antibody, chemiluminescence in arbitrary units; both purified
T4 sequence (peptide, phosphorylated serine ('s', fifth residue)): RRSRSFPVTF

[4] = molecular target: T5, positive control phospho-peptide RRHRsAPGVR; experiment: as above
T5 sequence (peptide, phosphorylated serine ('s', fifth residue)): RRHRSAPGVR

[5] = molecular target: T6, positive control phospho-peptide RRFRsLPAAH; experiment: as above
T6 sequence (peptide, phosphorylated serine ('s', fifth residue)): RRFRSLPAAH

[6] = molecular target: T7, POB1 fifteenmer peptide 338…352 (human); experiment: as above
T7 sequence (peptide): PPTPPPRPQKTHSRA

[7] = molecular target: GST-POB1 PRD1 (POB1 central region from Pro308 to Val365 as a GST fusion) (human); experiment: affinity selection of a phage-displayed cDNA library; GST-POB1 PRD1 immobilized on glutathione-sepharose as bait; human brain cDNA library displayed on lambda phage; selected clones sequenced; only the target purified

## GFP-POB1 full length (1-521) (human)
[1]
  binding: binds
GST-14-3-3 η (human)
  binding: binds
[2]
  binding: binds

## GFP-POB1 PRD1 (308-365) (human) (domain or fragment)
[1]
  binding: binds

## GST-14-3-3 sigma (human)
[3]
  binding: binds
[4]
  binding: binds
[5]
  binding: binds

## GST-SH3 carboxy-terminal of Grb2 (domain or fragment)
[6]
  binding: binds

B1: Src homology 3 domain (SH3) of Amphiphysin II displayed on lambda phage (domain or fragment, UniProt O00499 520-593)
chain: T1 sequence (looked up)
[7]
  binding: binds

Results are given in words; binding and its absence hold for the method and conditions named. Binding can be weak; no strength is given. For part of these data: Binding seen in cells or lysates may run through a third protein. For part of these data: Where a sequence is shown, tags or fusion partners need not be part of it.
